Library screening results

Amino acid sequences for entries named in this document (tags omitted).
UniProt E9BF75, entry or part of it: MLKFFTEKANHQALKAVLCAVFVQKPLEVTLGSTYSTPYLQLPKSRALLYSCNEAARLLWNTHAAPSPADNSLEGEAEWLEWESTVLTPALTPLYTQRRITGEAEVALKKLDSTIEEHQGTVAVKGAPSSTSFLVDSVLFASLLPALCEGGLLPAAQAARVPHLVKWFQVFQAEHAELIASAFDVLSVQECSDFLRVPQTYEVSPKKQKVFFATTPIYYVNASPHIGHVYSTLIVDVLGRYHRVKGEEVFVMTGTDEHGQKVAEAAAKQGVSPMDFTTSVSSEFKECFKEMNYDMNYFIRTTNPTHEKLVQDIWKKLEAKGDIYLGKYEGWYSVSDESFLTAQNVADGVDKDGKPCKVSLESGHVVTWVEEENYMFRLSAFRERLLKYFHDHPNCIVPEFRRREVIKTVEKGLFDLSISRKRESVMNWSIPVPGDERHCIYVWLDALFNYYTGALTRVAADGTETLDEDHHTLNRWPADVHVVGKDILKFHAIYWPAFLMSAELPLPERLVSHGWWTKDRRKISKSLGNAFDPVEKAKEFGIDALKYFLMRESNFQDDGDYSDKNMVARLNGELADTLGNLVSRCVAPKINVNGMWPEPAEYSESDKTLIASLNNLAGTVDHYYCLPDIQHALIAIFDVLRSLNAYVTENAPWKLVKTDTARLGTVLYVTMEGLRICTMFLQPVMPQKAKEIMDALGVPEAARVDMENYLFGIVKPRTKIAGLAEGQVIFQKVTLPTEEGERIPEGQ

Results are percentages, as filed.
The record does not define 0% and 100%; most values in the screen are far below 50% and negative numbers occur (in some assays of this library far below -100).
This is an unselected part of the compounds tested.
A dash means the value is not listed here; it may have been measured.

LdMetRS: 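Methionyl-tRNA synthetase (putative), Leishmania donovani (UniProt E9BF75). Primary screen of methionyl-tRNA synthetase; the read-out is not stated. The test concentration is not given. The values are filed as inhibition. Size under these conditions: about 68,000 compounds, about 24 of them at 50% or above in at least one test.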
Mtb heat-shock: 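Assay on Mycobacterium tuberculosis, filed only as a heat shock assay from Cornell; the read-out is not stated. The concentration is filed as 10 mM, unlikely as a test dose, so the dose is not known. Direction is inferred from retests: higher values go with stronger inhibition. Size under these conditions: about 69,000 compounds, about 930 of them at 50% or above in at least one test.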

structure	LdMetRS	Mtb heat-shock
CN(Cc1cccnc1)C1CC2(CCN(Cc3cccnc3)CC2)C1.O=C(O)C(F)(F)F.O=C(O)C(F)(F)F.O=C(O)C(F)(F)F	-	-1.954%
O=C(c1noc2c1CCCC2)N1CCCC(c2nccs2)C1 (stereo not drawn)	13.02%	-15.55%
Cc1cc(C(F)(F)F)cc(=O)n1CCCn1cnnn1	11.06%	-36.45%
[H][C@@]12CCN(C(=O)c3cc(C)[nH]c3C)C[C@]1(c1nc(C)no1)CCO2	-	-8.229%
OCC(CO)N1CCCC(Cc2ccnc(Nc3ccccn3)c2)C1 (stereo not drawn)	9.627%	11.5%
CCCC(=O)Nc1cccc([C@H]2C[C@@H](NC(C)=O)CCO2)c1	11.05%	3.207%
COc1ccc(F)cc1CN1CCC(O)(CN2CCCCC2)C1 (stereo not drawn)	19.94%	-27.81%
O=C(NCCCn1ccnc1)c1cccnc1OCC(F)(F)F	6.389%	40.89%
Cc1noc(C)c1CN1CC[C@H]2[C@@H]1CCC(=O)N2CC1CCOCC1	13.11%	-
Cn1cc(N2CCC3(CCCN(Cc4ccc(F)cc4)C3)C2=O)cn1 (stereo not drawn)	8%	-
O=C(Cc1cccs1)N1CCC(O)(CN2CCc3ccccc3C2)C1 (stereo not drawn)	3.529%	-5.892%
Cc1cn(CC(=O)NC2CCN(S(C)(=O)=O)CC2)c2ccccc12	13.01%	-10.93%
Cc1nc2cc(O)nn2c(C)c1CCC(=O)NCCc1nccn1C	5.413%	-13.23%
CN(c1ncccc1CNC(=O)c1cscn1)C1CCCCC1	5.396%	-15.62%
CN(Cc1ncc[nH]1)CC(c1cccs1)N1CCOCC1 (stereo not drawn)	11.75%	2.411%
N#CC1(C(=O)NCCCNc2ccc(C(F)(F)F)cn2)CCCC1	11.22%	102.8%
OCc1ccc(N2CCN(c3ncccn3)CC2)c(F)c1	8.992%	17.39%
Cc1nn(C)c(Cl)c1C1CCCN1C(=O)c1ccoc1C (stereo not drawn)	18.33%	-9.343%
COc1ccc2c(c1)C(C(=O)NCCN1CCNC1=O)CC(=O)N2 (stereo not drawn)	3.161%	-25.38%
NC(=O)c1cnc(NCC(=O)NCc2ccco2)c(Cl)c1	10.99%	-0.5288%
CCOC(=O)N[C@H]1C[C@@H](C(=O)NCCc2cccc(Cl)c2)N(C)C1	12.11%	-11.16%
c1ccc(NCc2cn3c(n2)CN(Cc2ccoc2)CC3)nc1	23.31%	-12.08%
Cc1ccccc1CC(C)NC(=O)Nc1cnn(CC(N)=O)c1 (stereo not drawn)	16.33%	3.341%
c1ccc(CNC[C@H]2COCc3nc4cccnc4n32)cc1	0.9772%	-4.727%
COCCN1CCC(CNc2nc3ccccc3o2)CC1	10.07%	-13.53%
Cn1c(NCCC(=O)N2CCCC2)c(C#N)c(=O)n(C)c1=O	-7.521%	-27.38%
Cn1cc(N2CCC3(CCCN(Cc4ccoc4)C3)C2=O)cn1 (stereo not drawn)	3.333%	-21.22%
O=C(CN1C=Nc2ccccc2S1(=O)=O)NCCCc1ccccc1	19.43%	0.5459%
CC(C)c1noc(OCc2cccc(C#N)c2)n1	11.82%	-5.12%
CC(=O)N1CCN(Cn2nc(-c3ccc(F)cc3)oc2=O)CC1	10.12%	10.26%
CCNC(=O)NC[C@H]1Cn2c(-c3ccccc3)cnc2CO1	9.831%	-54.19%
CC(c1cccc(O)c1)N(C)S(=O)(=O)c1cccnc1 (stereo not drawn)	10.99%	37.84%
Cc1nn(Cc2ccc(C(=O)NC3CCS(=O)(=O)C3)cc2)c(C)c1Br (stereo not drawn)	-9.677%	4.662%
[H][C@]12CCN(C(=O)CC(C)C)CC[C@@]1([H])S(=O)(=O)CCN2S(C)(=O)=O	-	12.14%
Cc1nn(C)cc1S(=O)(=O)NCC(c1ccccc1Cl)N1CCCC1 (stereo not drawn)	4.984%	1.336%
COc1ncccc1C(=O)N1CC[C@]2(C[C@@H](Oc3cccnc3)CO2)C1.O=C(O)C(F)(F)F.O=C(O)C(F)(F)F	-	-28%
CC(=O)c1cccc(OCCCC(=O)N(C)Cc2cnn(C)c2)c1	-2.174%	0.3767%
COCCN1CCCCC12CC(=O)N(c1ccccc1OC)C2 (stereo not drawn)	10.91%	-
Cc1c(C(=O)N(C)CC(F)(F)F)nnn1-c1ccc(F)cc1	-2.66%	16.02%
O=C(CCc1cccc(Cl)c1Cl)N1CCOCC1c1ncon1 (stereo not drawn)	12.85%	-1.404%
Cc1nc(-c2cccnc2)ncc1C(=O)N1CCCC(N(C)C)CC1 (stereo not drawn)	8.908%	-18.98%
CN(Cc1ccccn1)C(=O)c1nn(C)c2c1CCN(CC1CC1)C2.O=C(O)C(F)(F)F.O=C(O)C(F)(F)F.O=C(O)C(F)(F)F	-	-0.8367%
CCc1cn[nH]c1C1CCN(C(=O)c2cc(C(C)=O)c(C)[nH]c2=O)CC1	4.11%	-30.26%
CSC(C)C(=O)N1CCCN(Cc2cscn2)CC1 (stereo not drawn)	7.143%	-3.389%
COc1ccnc(N2CCN(C(=O)c3ccn(C)c(=O)c3)CC2)n1	24.44%	-10.47%
CCN(CC)C(=O)c1nc2c(s1)CCN(C(=O)Nc1ccccc1)CC2	8.197%	45.05%
Cc1nnc(C(C)N2CCCN(Cc3ccc(C#N)cc3)CC2)o1 (stereo not drawn)	25%	-5.919%
Cc1nc(CN2CCN(C(=O)c3sccc3C3CC3)CC2)oc1C	5.525%	-16.48%
O=C1CCC(CCC(=O)N2CCC2c2cccs2)=NN1 (stereo not drawn)	7.107%	14.34%
[H][C@@]12CCC(=O)N(CCc3c[nH]cn3)[C@]1([H])CCN(Cc1c(C)n[nH]c1C)C2	-	-4.533%

For reference, 5 entries once more:

Result for Cc1nn(C)cc1S(=O)(=O)NCC(c1ccccc1Cl)N1CCCC1 (stereo not drawn) was LdMetRS: 4.984%; Mtb heat-shock: 1.336%.
Result for CCCC(=O)Nc1cccc([C@H]2C[C@@H](NC(C)=O)CCO2)c1 was LdMetRS: 11.05%; Mtb heat-shock: 3.207%.
Result for Cn1cc(N2CCC3(CCCN(Cc4ccoc4)C3)C2=O)cn1 (stereo not drawn) was LdMetRS: 3.333%; Mtb heat-shock: -21.22%.
Result for c1ccc(NCc2cn3c(n2)CN(Cc2ccoc2)CC3)nc1 was LdMetRS: 23.31%; Mtb heat-shock: -12.08%.
Result for CCc1cn[nH]c1C1CCN(C(=O)c2cc(C(C)=O)c(C)[nH]c2=O)CC1 was LdMetRS: 4.11%; Mtb heat-shock: -30.26%.

Data taken from ChEMBL document CHEMBL3988442, “University of Dundee, Small-Polar-MMV Screening Library” (2021).